We go through 4 molecules from doi:10.1101/2025.05.27.656397, “A new heme enzyme family forms hydrazine groups in diverse biosynthetic pathways” (bioRxiv, 2025).

The target in test [1] is T1, His6-KinJ (N-terminal His6 tag), co-expressed with KinI (Streptomyces murayamaensis ATCC 21414).
T1 sequence: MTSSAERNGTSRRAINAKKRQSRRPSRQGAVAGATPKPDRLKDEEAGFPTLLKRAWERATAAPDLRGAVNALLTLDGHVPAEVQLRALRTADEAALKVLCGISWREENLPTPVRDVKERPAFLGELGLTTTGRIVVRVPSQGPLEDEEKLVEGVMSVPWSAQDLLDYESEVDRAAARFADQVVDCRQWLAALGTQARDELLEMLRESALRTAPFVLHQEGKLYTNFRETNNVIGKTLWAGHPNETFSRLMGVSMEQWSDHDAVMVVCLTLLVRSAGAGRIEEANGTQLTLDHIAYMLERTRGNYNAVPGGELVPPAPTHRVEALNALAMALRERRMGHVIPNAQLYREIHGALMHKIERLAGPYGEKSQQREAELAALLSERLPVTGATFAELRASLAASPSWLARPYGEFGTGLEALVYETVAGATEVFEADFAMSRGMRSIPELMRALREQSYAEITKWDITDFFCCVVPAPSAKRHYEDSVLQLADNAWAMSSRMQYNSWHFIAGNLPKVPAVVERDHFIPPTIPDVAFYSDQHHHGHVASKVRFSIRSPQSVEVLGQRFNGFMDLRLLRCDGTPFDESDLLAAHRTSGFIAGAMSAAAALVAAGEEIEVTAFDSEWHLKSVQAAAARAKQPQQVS
The test can be described thus: pull-down; proteins co-expressed in E. coli, His6 tag on one partner at the N- or C-terminus, expressed aerobically, purified anaerobically; partner found in the affinity-purified material.

The target in test [2] is T2, KinJ with C-terminal His6 tag, co-expressed with KinI (Streptomyces murayamaensis ATCC 21414).
T2 sequence: T1 sequence
The test is described as above.

The target in test [3] is T3, KinJ from Streptomyces murayamaensis ATCC 21414 (tag placement not stated for the experiment) (Streptomyces murayamaensis ATCC 21414).
T3 sequence: T1 sequence
In words: SEC; anaerobic size exclusion chromatography of proteins expressed alone or co-expressed and purified; both purified. Background: Size exclusion chromatography separates by hydrodynamic size, large species first.

Test [4] concerns the target T4, C-terminally His6-tagged KinI (ferredoxin) (S. murayamaensis).
T4 sequence: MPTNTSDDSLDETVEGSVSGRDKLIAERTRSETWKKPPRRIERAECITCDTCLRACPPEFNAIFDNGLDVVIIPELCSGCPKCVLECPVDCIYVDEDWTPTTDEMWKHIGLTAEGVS
In words: pull-down; proteins co-expressed in E. coli, His6 tag on one partner at the N- or C-terminus, expressed aerobically, purified anaerobically; partner found in the affinity-purified material.

The target of test [5] is T5, N-terminally His6-tagged KinI (ferredoxin) (S. murayamaensis).
T5 sequence: T4 sequence
The description is as above.

Results are given in words; binding and its absence hold for the method and conditions named. For part of these data: In cells and extracts the contact can be indirect. Some entries that bind do so weakly or less than the wild type. Tags and fused reporters may be left off the sequences shown.

B1: KinI (ferredoxin), co-expressed with His6-tagged KinJ (prey of the pull-down) (protein, UniProt A0A385LT12 1-117)
chain: T4 sequence
In the case of B1, the binding result in test [1] and in test [2] was “binds” each time.

B2: KinI (ferredoxin; tag placement not stated for the experiment) (protein)
chain: T4 sequence
With B2, the binding result in test [3] was “binds”.

B3: KinJ from Streptomyces murayamaensis ATCC 21414, co-expressed with His6-tagged KinI (prey of the pull-down) (enzyme, UniProt A0A385LMJ2 1-639)
chain: T1 sequence
Regarding B3, the binding entry in test [4] and in test [5] was “binds” each time.

B4: KinJ from Streptomyces murayamaensis ATCC 21414 (tag placement not stated for the experiment) (enzyme, UniProt A0A385LMJ2 1-639)
chain: T1 sequence
For B4, in test [3], the binding result is “no binding”.
